From publication PMC6412121
These are yes or no findings as the source states them, for the method shown. In cells and extracts the contact can be indirect. Some binding calls cover weakened binding; strength is not graded here.

Sequences of proteins named here, by UniProt entry; tags and fusion partners are left off.
UniProt Q9BUR4: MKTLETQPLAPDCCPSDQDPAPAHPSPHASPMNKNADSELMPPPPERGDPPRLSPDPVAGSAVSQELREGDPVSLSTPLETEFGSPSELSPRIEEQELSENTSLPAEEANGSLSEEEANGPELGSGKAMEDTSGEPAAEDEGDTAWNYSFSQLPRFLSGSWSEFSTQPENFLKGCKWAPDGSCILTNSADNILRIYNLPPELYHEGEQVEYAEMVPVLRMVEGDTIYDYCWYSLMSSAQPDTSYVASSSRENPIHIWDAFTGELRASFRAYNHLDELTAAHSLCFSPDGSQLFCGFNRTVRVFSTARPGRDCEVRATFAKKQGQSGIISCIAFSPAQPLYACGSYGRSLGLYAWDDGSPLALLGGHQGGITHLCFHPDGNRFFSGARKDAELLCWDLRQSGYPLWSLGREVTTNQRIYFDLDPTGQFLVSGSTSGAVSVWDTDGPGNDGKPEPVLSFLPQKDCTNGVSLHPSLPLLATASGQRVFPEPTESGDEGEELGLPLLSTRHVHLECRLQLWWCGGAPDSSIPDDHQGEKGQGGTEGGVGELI
UniProt Q13148: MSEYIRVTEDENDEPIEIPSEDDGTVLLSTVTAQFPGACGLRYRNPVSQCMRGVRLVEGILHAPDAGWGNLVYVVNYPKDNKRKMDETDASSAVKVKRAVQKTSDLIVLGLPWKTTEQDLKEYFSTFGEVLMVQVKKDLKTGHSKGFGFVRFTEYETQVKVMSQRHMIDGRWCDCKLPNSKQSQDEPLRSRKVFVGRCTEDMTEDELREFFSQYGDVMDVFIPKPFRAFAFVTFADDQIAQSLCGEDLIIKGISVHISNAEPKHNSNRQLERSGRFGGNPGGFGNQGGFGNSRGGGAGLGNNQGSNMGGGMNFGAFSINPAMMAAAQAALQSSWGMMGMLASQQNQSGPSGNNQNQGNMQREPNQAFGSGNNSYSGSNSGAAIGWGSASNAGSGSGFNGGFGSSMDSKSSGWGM

Legend:
[1] = target: WD40-repeat protein 79 (WDR79), endogenous (human (endogenous in T-REx 293)) (UniProt Q9BUR4); experiment: co-IP; serial two-step pull-down from DAP-TDP-43-expressing T-REx 293 cells (doxycycline 24 h): first with anti-FLAG (DAP-TDP-43), then with anti-WDR79; immunoblot with anti-WDR79 or streptavidin-HRP
[2] = target: WD40-repeat protein 79 (WDR79), endogenous (human (endogenous in T-REx 293)) (UniProt Q9BUR4); experiment: co-IP; reciprocal pull-down with endogenous WDR79 as affinity bait; TDP-43 by immunoblot (Supplementary Figure S4C)
[3] = target: HEF (HA, TEV cleavage site and FLAG)-tagged WDR79 (human (cDNA derived from 293T cells)) (UniProt Q9BUR4); experiment: co-IP; HEF-WDR79 as affinity bait, anti-FLAG (FLAG M2 agarose) from extracts of doxycycline-induced T-REx 293 cells (67 mM Tris-HCl pH 7.4, 200 mM NaCl, 0.1% IGEPAL CA-630, 4°C); TDP-43 by immunoblot; also after ncRNA or TDP-43 siRNA for 72 h (Figure 5B)
[4] = target: DAP (His6-, biotin- and FLAG-tagged)-TDP-43, wild type (UniProt Q13148); experiment: co-IP; DAP-TDP-43 or its deletion mutants as affinity bait, captured on FLAG M2 agarose from extracts of doxycycline-induced T-REx 293 cells (67 mM Tris-HCl pH 7.4, 200 mM NaCl, 0.1% IGEPAL CA-630, 4°C); WDR79 by immunoblot; the paper calls it a pull-down; 'independently of RNA'

In the case of “DAP (His6-, biotin- and FLAG-tagged)-TDP-43, wild type (from UniProt Q13148 1-414)”, the binding [1] is reported as “binds”.
For “TDP-43, endogenous (from UniProt Q13148 1-414)”, the binding [2] was “binds” and the binding [3] was “binds”.
“WD40-repeat protein 79 (WDR79), endogenous (from UniProt Q9BUR4 1-548)” was tested, and the binding [4] was “binds”.
